Patent publication US20240209334A1, “SMALL-MOLECULE-ACTIVATED GLYCAN MODIFYING ENZYMES AND USES THEREOF” (President and Fellows of Harvard College, priority 2022, published 2024)
For at least one compound, name, drawing or mass did not settle the structure.

Assays:
endogenous OGT mRNA = assay: Quantitative RT-PCR of endogenous OGT mRNA during OGA-intein activation; format: cell-based; settings: 24-hour activation
[1] = tested on: O-GlcNAcylated proteins in HEK293T cells; assay: Quantitative proteomics after enrichment for O-GlcNAc; format: cell-based, Homo sapiens; settings: HEK293T expressing C181-NLS, 1 μM 4-HT for 2 hours
Description: To further assess the spatial deglycosylation mediated by these subcellularly localized OGA-intein variants, quantitative proteomics was performed following enrichment for O-GlcNAc (38) on cell lysates after expression of C181-NLS with 4-HT treatment for 2 hours and 24 hours, respectively, or the OGT inhibitor OSMI-4b (3) for comparison (FIG. 4E and FIGS. 12A, 12B, 12C).
Chemoenzymatic labeling of O-GlcNAcylated proteins. Purification of GalT1 (Y289L) enzyme and labeling of O-GlcNAcylated proteins with GalNAz were performed according to the procedure of Hsich-Wilson and co-workers (51). Briefly, cell samples in 15-cm dishes were harvested and washed by PBS once. Cells were lysed in 2% SDS/PBS by heating at 95° C. for 5 minutes, followed by sonication. Protein concentrations were determined and then subjected to reduction and alkylation using 25 mM DTT at 95° C. for 5 minutes and 50 mM iodoacetamide at room temperature for 1 hour, respectively. Proteins were precipitated using the methanol/chloroform mix (aqueous phase: CH3OH:CHCl3=4:4:1) and resuspended in 1% SDS, 20 mM HEPES (pH 7.9) buffer with a concentration of 3.75 mg/mL. […]
Quantitative chemical proteomics. […]

## CC/C(=C(\c1ccc(O)cc1)c1ccc(OCCN(C)C)cc1)c1ccccc1 [4-HT, 4-hydroxytamoxifen]
Endogenous OGT mRNA
  OGT mRNA after long activation: recovered back to basal levels
[1]
  change of O-GlcNAc on nuclear proteins: sufficient to specifically reduce O-GlcNAc on nuclear O-GlcNAc proteins
